PubChem BioAssay AID1259308, NCATS | 2017

Test: 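Knock-downs that increase output of a recombinant reporter protein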 (primary screen)
Cells: human HEK293 embryonic kidney cells stably expressing firefly luciferase (HEK-CMV-Luc2-Hygro)
Knock-down reagent: single siRNA against human genes, 0.8 pmol siRNA per well
Duration: 72 h
Detection: 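Reporter luminescence and viable-cell signal on separate replicate plates, given as percent of non-targeting control and median/MAD z-scores, plus per-cell luciferase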
Direction: total luciferase, z-score: higher = more reporter protein produced
Active means: 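Active when the median/MAD z-score for overall luciferase is greater than 3; a gene was taken forward for validation with new siRNAs if at least two of its three siRNAs passed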
Calls: active = raised luciferase; inactive = no rise
The deposit covers about 59,000 reagents; shown is a random part of them. Of all reagents, about 1,510 (2.6%) were called active. 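Calls use total luciferase alone and ignore viability, so some active siRNAs may act by altering cell number.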 Reagents against one gene are numbered here. Further read-outs or replicates are left out here. No sequences are given here.

target,reagent no.,"total luciferase, z-score",outcome
LLGL2,1,-0.633,inactive
LLGL2,2,0.534,inactive
LLGL2,3,4.02,active
PPFIA1,1,1.56,inactive
PPFIA1,2,-0.439,inactive
PPFIA1,3,1.27,inactive
ZNF708,1,1.13,inactive
ZNF708,2,-0.694,inactive
ZNF708,3,-1.04,inactive
NKX2-4,1,1.2,inactive
NKX2-4,2,-0.402,inactive
NKX2-4,3,3.29,active
YARS2,1,-0.54,inactive
YARS2,2,-0.24,inactive
YARS2,3,-0.763,inactive
CNGB3,1,0.222,inactive
CNGB3,2,0.888,inactive
CNGB3,3,-0.491,inactive
HMGB2,1,1.14,inactive
HMGB2,2,-2.4,inactive
HMGB2,3,-0.737,inactive
DLGAP2,1,-1.14,inactive
DLGAP2,2,1.44,inactive
DLGAP2,3,-1.75,inactive
DLGAP2,4,-1.19,inactive
DLGAP2,5,-0.8,inactive
DLGAP2,6,-0.572,inactive
KRT222,1,2.9,inactive
KRT222,2,-0.251,inactive
KRT222,3,0.577,inactive

2 entries from above in another layout:
{"target":"DLGAP2","reagent no.":2,"total luciferase, z-score":1.44,"outcome":"inactive"}
{"target":"DLGAP2","reagent no.":3,"total luciferase, z-score":-1.75,"outcome":"inactive"}

More reagents follow.
target,reagent no.,"total luciferase, z-score",outcome
SLC1A7,1,-0.76,inactive
SLC1A7,2,0.794,inactive
SLC1A7,3,0.683,inactive
PHLPP2,1,-0.642,inactive
PHLPP2,2,-0.82,inactive
PHLPP2,3,0.231,inactive
AGAP3,1,0.102,inactive
AGAP3,2,-0.21,inactive
AGAP3,3,0.499,inactive
EMP3,1,-1.41,inactive
EMP3,2,-0.855,inactive
EMP3,3,1.62,inactive
PHLPP1,1,-0.067,inactive
PHLPP1,2,0.702,inactive
PHLPP1,3,0.0752,inactive
CSMD2,1,-0.879,inactive
CSMD2,2,1.25,inactive
CSMD2,3,0.0183,inactive
PROKR2,1,-0.183,inactive
PROKR2,2,3.73,active
PROKR2,3,0.0896,inactive
C1DP3,1,-1.27,inactive
C1DP3,2,-1.41,inactive
C1DP3,3,-0.638,inactive
LOC646471,1,-0.254,inactive
LOC646471,2,1.09,inactive
LOC646471,3,5.7,active
